This passage reports cell number change and AC50 results from PubChem BioAssay AID2685 (National Center for Advancing Translational Sciences (NCATS), 2010).

The nature of this assay: qHTS Assay for Lipid Storage Modulators in Drosophila S3 Cells.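 As to cell number change: cells counted by Cell Tracker Red CMTPX staining in the red channel.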 The conditions noted are these: BODIPY lipid droplet fluorescence, 18-24 h; for cell number change: measured here: cell count max response, cells fed with added oleic acid. An outline of the steps:
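Drosophila S3 cells loaded with oleic acid (400 uM, as added) and compounds at several concentrations; lipid droplets imaged by 488-nm laser-scanning cytometry, 500–530 nm intensity and object ratio to cell channel. Percent activity normalized to 20 uM Triacsin C.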
In general terms: qHTS replaces the single test concentration by a dilution series.

The mark [1] stands for this setting: measured here: lipid fluorescence (Fed channel) AC50, cells fed with added oleic acid.
The mark [2] stands for this setting: measured here: cell number channel AC50, cells fed with added oleic acid.

SMILES strings stand for the structures. Some of the results follow. The main result of the screen is listed elsewhere. These columns were measured beside it and carry no call. Compounds called inactive in the main read-out are mostly missing here. Words in brackets tell the shape of the fitted curve; partial curves, single points and poor fits give uncertain potencies.

For the compound `CCN1CCN(c2ccc(S(=O)(=O)N3CCOCC3)cc2NC(=O)CCOc2ccccc2)CC1`, the cell number change is -11.5%. The AC50 – broadly, the concentration giving half of the maximal activity seen – under setting [1] is 16.4 µM [falling, partial curve]. With `COc1ccc(CCNC(=O)Cn2c(=O)c3cccn3c3cccnc32)c(OC)c1OC`, the cell number change turned out to be 2.85%.

With `O=C(N[C@@H](Cc1ccccc1)C(=O)N1CCN(S(=O)(=O)c2ccc(F)cc2)CC1)c1ccco1`, the cell number change was -11.1%. Besides, the AC50 under setting [1] was 0.651 µM [rising, single point]. As for `Cc1ccccc1C(=O)N1CCN(c2ccc(NC(=O)c3ccc([N+](=O)[O-])o3)cc2)CC1`, the cell number change is -8.06%. For the same compound, the AC50 under setting [1] is 0.116 µM [rising, full curve, poor fit].

For the compound `O=C(NCCc1ccc(F)cc1)c1cc(-c2ccncc2)nc2ccccc12`, the cell number change stood at 19%. Besides, the concentration at half-maximal activity (AC50) under setting [1] was 4.61 µM [rising, full curve, poor fit]. Consider `Cc1cc(F)ccc1S(=O)(=O)Nc1ccccc1C(=O)Nc1ccc2[nH]c(=O)[nH]c2c1`, for which the cell number change is -36.1%. Besides, the concentration at half-maximal activity (AC50) under setting [2] is 6.51 µM [falling, partial curve, poor fit]. Also, the concentration at half-maximal activity (AC50) under setting [1] was 29.1 µM [falling, single point]. On to `C#CCn1c(=NC(=O)CN2C(=O)CCC2=O)sc2cccc(OC)c21`, for which the cell number change was -2.46%. Further, under setting [1], the AC50 is 20.6 µM [rising, single point]. With `CNc1ccccc1C(=O)OC`, the cell number change is -22.8%. The half-maximal activity concentration (AC50) under setting [1] is 1.03 µM [falling, full curve]. Regarding `COc1ccc(-n2ccnc2SCC(=O)NCc2ccco2)c(OC)c1`, the cell number change is 45.2%. The AC50 under setting [2] was 6.51 µM [rising, full curve]. Also, the AC50 under setting [1] was 0.0326 µM [rising, full curve]. Regarding `COc1cccc(N(C(=O)CNC(=O)c2ccco2)C(C(=O)NC2CCCC2)c2ccco2)c1` (centres undefined), the cell number change came to 16.7%. The AC50 under setting [2] is 0.058 µM [rising, full curve, poor fit].

For the compound `COc1ccc(CCNC(=O)C(=O)c2c[nH]c3ccccc23)cc1OC`, the cell number change is -4.95%. For the same compound, the concentration at half-maximal activity (AC50) under setting [1] was 29.1 µM [rising, single point]. In the case of `O=c1[nH]c2ccccc2n1CCCN1CCCCC1`, the cell number change is -11.7%. Besides, the AC50 under setting [1] is 6.51 µM [falling, single point].

With `COc1ccc(C(=O)/C=C/N2CCCCC2)cc1OC`, the cell number change amounted to 11.2%. Further, the half-maximal activity concentration (AC50) under setting [1] was 2.06 µM [rising, full curve, poor fit].

With `O=S(=O)(c1ccc2c(c1)CCCN2)N1CCCCC1`, the cell number change was -3.03%. In addition, the half-maximal activity concentration (AC50) under setting [1] was 0.082 µM [rising, partial curve, poor fit].

`CC(=O)Nc1ccc(-c2csc(NNC(=O)c3ccc(C)cc3)n2)cc1`: the cell number change was -11.9%. For the same compound, under setting [2], the AC50 is 0.0651 µM [falling, full curve, poor fit]. Take `CCCOc1ccc(CNC(=O)c2ccc3c(c2)N(CC)CCS3)cc1`: the cell number change is -33.7%. Besides, the half-maximal activity concentration (AC50) under setting [2] is 18.4 µM [falling, single point]. The AC50 under setting [1] is 13 µM [falling, partial curve]. For `CCOc1nc(Nc2ccc(OC)c(Cl)c2)nc(N2CCN(c3ccc(OC)cc3)CC2)n1`, the cell number change worked out at 7.44%. In addition, the AC50 under setting [2] is 1.64 µM [rising, partial curve]. Also, under setting [1], the concentration at half-maximal activity (AC50) was 0.731 µM [rising, full curve]. In the case of `C/C(=N\NC(=O)c1cnccn1)c1ccc([N+](=O)[O-])cc1`, the cell number change was 16.1%. In addition, the AC50 under setting [2] was 0.461 µM [falling, single point].

On to `COc1cc(C2C(C(=O)C(C)(C)C)=C(O)C(=O)N2Cc2ccccc2)ccc1O` (centres undefined), for which the cell number change was -25.6%. `CC(=O)N1CCc2cc(S(=O)(=O)N3CCc4ccccc4C3)ccc21`: the cell number change stood at 49.3%. Besides, the concentration at half-maximal activity (AC50) under setting [2] is 4.11 µM [rising, partial curve]. With `S=c1[nH]nc(-c2ccc3ccccc3n2)n1-c1ccc2ncccc2c1`, the cell number change turned out to be 14.1%. Besides, under setting [1], the AC50 was 1.64 µM [rising, partial curve]. As to `COc1ccc(OCC(=O)NNC(=S)NC(=O)C2CCCCC2)cc1`, the cell number change was determined as 16.8%. Still for that read-out and setting: to `C/C(=N\NC(=O)c1c[nH]c2ccccc12)c1ccc(C)s1` belongs 26.3%. Take `Cc1ccc(S(=O)(=O)CCC(=O)OCC(=O)Nc2cc(S(=O)(=O)N3CCOCC3)ccc2C)cc1`: the cell number change is 1.18%. In addition, the half-maximal activity concentration (AC50) under setting [1] is 29.1 µM [falling, single point].

Consider `O=C(CSc1nccn1Cc1ccccc1)NCc1ccccc1`, for which the cell number change was determined as 59.2%. Also, under setting [2], the AC50 was 20.6 µM [rising, single point]. `CCOc1ccccc1NC(=O)C1CCN(S(C)(=O)=O)CC1`: the cell number change was -10.9%.

For `CCOC(=O)C1CCN(C(=O)C2(NC(=O)Nc3ccc(F)cc3F)CCCCC2)CC1`, the cell number change was -10.9%. Turning to `CC1CCCCC1NC(=O)c1cncc(Br)c1` (centres undefined), the AC50 under setting [1] is 23.1 µM [rising, single point]. Turning to `Cc1ccc(S(=O)(=O)N2CCOCC2)cc1C(=O)NCC1CCCCC1`, the cell number change came to 2.24%. The half-maximal activity concentration (AC50) under setting [1] is 29.1 µM [falling, single point].

Consider `COCCN(C(=O)COC(=O)CCOc1ccccc1C)c1c(N)n(Cc2ccccc2)c(=O)[nH]c1=O`, for which the cell number change was found to be 0.0963%. Further, under setting [1], the AC50 is 23.1 µM [falling, partial curve, poor fit]. As for `Cc1ccc(Cn2ccc(=O)c(OCc3c(Cl)cccc3Cl)c2C)cc1`, the cell number change is -72.7%. Also, the AC50 under setting [2] is 16.4 µM [falling, partial curve]. Further, the AC50 under setting [1] is 0.184 µM [falling, full curve, poor fit].

With `N#Cc1ccc(N2Cc3ccccc3/C2=N/C(=O)Nc2ccc(Cl)cc2)cc1`, the cell number change came to 83.3%. The half-maximal activity concentration (AC50) under setting [2] is 6.51 µM [falling, single point]. Under setting [1], the AC50 was 20.6 µM [rising, partial curve]. With `O=C1C2CCCN2C(c2ccc(Br)cc2)N1c1ccc(F)cc1` (centres undefined), the cell number change was found to be 11.3%. Consider `CCN(CC)c1nc2c(c(=O)[nH]c(=O)n2C)n1CCCc1ccccc1`, for which the cell number change was -21.7%. Under setting [1], the concentration at half-maximal activity (AC50) was 0.164 µM [rising, full curve, poor fit]. In the case of `CN1C(=O)c2ccc(NC(=O)C3CCCCC3)cc2C1=O`, the cell number change worked out at 3.33%. In addition, the half-maximal activity concentration (AC50) under setting [1] was 4.11 µM [rising, full curve].

Take `COc1cc2cc(CCCOC(=O)c3ccc(F)cc3)oc(=O)c2cc1OC`: the cell number change was -30.7%. The AC50 under setting [2] was 2.59 µM [falling, single point]. In addition, under setting [1], the AC50 was 0.92 µM [falling, partial curve]. `CCCNC(=O)c1oc2ccc3c(c2c1C)C(=O)CC(C)(C)O3`: under setting [2], the AC50 was 0.58 µM [rising, full curve]. On to `COc1ccccc1-n1c(SC)nc(O)cc1=O`, for which the cell number change is 36.2%. Also, the AC50 under setting [2] was 5.17 µM [rising, full curve, poor fit].
